Assay results from patent US7683097B2, “Topoisomerase inhibitors” (Propharmacon Inc., priority 2004, dated 2010).
For at least one compound, name, drawing or mass did not settle the structure.

System: calf thymus DNA
Test: DNA-intercalator displacement assay (EtBr displacement)
Type: binding
Conditions: FIG. 4
Description: The curve labeled “Hoechst” corresponds to Hoechst 33258. Controls are: 1) no EtBr (min. fluorescence) and 2) no compound (max. fluorescence).
Gel retardation assays were done on 320 and other biaryl/terphenyl acid compounds, to test for electrophoretic mobility shifts due to the presence of a substance that directly binds DNA.

CC1COc2c(N3CCN(C)CC3)c(F)cc3c(=O)c(C(=O)O)cn1c23 (stereo not shown) [ofloxacin]
displacement of EtBr (intercalator) from DNA: lack of intercalator displacement
